Measured values as given in the supplement of paper PMC10849652.
The list shows a part of the results.

Sequences of proteins named here, by UniProt entry; tags and fusion partners are left off. A change or cut given only in a name is not applied to a line headed by its entry.
UniProt Q96N67: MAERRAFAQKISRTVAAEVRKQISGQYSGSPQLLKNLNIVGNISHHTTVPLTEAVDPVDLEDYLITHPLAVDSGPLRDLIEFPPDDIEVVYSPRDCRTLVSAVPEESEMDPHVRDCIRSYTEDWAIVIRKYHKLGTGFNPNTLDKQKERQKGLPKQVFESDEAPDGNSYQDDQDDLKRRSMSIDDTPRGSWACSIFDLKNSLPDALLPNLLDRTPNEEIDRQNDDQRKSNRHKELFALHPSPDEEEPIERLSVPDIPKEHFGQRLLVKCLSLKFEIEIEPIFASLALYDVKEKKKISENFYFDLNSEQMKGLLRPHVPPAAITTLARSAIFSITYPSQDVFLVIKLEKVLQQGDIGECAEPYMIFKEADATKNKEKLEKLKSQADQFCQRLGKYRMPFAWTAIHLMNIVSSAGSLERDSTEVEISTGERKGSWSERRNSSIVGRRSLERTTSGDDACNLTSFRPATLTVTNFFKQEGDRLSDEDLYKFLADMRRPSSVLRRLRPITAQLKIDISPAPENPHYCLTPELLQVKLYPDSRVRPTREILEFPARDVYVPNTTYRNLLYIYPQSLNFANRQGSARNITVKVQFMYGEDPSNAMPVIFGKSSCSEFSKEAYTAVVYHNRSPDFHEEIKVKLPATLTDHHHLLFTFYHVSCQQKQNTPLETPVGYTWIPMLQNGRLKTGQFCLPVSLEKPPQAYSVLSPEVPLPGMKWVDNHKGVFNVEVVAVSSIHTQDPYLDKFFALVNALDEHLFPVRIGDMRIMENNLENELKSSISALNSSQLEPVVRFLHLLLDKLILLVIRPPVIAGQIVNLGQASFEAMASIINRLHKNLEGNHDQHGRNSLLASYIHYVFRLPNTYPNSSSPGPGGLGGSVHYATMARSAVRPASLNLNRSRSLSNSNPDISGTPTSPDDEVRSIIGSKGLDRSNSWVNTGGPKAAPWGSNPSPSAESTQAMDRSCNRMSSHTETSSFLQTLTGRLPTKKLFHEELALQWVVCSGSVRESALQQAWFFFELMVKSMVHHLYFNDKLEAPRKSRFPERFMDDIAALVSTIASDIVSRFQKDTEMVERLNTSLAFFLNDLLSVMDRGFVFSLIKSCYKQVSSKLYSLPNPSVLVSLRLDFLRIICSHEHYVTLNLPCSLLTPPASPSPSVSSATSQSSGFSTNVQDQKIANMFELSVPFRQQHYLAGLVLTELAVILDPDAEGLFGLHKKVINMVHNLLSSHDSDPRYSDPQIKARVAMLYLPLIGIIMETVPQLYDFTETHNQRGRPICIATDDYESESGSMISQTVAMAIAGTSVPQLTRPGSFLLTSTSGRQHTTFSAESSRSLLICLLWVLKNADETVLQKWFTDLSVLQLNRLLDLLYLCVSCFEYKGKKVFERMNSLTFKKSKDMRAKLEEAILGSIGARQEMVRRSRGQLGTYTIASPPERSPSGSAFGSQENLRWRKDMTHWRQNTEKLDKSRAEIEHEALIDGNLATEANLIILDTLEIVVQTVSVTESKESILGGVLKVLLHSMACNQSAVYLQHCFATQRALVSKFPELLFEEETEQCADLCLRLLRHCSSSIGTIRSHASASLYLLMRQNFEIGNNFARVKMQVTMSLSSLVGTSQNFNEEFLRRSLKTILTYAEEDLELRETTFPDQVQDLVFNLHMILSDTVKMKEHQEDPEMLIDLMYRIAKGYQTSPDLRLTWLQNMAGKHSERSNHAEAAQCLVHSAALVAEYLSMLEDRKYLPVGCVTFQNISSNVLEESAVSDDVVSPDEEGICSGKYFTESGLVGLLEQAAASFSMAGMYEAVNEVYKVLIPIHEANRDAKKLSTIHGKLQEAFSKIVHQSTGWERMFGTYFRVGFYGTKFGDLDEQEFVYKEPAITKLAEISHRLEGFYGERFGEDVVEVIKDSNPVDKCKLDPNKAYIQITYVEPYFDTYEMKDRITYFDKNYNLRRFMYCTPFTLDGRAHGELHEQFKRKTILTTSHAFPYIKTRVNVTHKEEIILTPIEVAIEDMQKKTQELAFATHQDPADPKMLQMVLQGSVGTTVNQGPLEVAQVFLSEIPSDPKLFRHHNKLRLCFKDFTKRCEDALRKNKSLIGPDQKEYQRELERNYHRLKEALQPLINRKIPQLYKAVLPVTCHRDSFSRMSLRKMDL
UniProt Q13574: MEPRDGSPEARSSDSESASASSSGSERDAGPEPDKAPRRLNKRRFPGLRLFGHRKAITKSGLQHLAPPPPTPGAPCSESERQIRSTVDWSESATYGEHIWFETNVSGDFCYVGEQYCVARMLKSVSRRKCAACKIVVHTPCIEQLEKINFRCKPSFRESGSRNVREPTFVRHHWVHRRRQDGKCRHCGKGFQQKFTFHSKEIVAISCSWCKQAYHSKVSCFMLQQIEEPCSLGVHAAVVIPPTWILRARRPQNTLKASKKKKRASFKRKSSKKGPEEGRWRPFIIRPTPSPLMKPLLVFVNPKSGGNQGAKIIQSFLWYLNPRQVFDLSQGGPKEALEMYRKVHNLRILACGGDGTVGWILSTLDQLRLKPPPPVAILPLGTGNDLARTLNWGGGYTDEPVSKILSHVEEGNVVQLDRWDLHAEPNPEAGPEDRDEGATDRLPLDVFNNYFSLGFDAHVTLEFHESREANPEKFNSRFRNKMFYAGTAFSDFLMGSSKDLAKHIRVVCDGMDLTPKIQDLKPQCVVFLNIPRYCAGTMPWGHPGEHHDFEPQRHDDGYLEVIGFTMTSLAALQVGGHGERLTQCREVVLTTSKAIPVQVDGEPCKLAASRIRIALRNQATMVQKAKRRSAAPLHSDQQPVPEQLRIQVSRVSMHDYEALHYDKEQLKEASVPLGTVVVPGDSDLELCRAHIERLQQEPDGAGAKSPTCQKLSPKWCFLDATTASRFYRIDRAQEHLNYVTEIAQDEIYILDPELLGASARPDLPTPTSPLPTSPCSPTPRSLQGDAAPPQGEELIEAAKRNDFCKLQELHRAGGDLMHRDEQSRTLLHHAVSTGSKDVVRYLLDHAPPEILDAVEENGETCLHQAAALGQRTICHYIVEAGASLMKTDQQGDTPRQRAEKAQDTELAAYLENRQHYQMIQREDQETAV
UniProt Q08495: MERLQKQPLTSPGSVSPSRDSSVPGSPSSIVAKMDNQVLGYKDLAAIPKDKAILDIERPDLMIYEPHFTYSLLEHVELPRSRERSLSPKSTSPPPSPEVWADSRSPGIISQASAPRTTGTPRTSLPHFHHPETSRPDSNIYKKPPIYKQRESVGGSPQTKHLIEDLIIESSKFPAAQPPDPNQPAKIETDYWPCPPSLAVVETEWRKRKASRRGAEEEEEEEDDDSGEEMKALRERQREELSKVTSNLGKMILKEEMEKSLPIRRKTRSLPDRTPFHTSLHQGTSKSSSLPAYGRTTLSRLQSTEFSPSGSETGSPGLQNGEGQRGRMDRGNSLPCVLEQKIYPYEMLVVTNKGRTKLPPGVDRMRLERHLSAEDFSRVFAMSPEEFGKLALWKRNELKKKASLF
UniProt Q96KC8: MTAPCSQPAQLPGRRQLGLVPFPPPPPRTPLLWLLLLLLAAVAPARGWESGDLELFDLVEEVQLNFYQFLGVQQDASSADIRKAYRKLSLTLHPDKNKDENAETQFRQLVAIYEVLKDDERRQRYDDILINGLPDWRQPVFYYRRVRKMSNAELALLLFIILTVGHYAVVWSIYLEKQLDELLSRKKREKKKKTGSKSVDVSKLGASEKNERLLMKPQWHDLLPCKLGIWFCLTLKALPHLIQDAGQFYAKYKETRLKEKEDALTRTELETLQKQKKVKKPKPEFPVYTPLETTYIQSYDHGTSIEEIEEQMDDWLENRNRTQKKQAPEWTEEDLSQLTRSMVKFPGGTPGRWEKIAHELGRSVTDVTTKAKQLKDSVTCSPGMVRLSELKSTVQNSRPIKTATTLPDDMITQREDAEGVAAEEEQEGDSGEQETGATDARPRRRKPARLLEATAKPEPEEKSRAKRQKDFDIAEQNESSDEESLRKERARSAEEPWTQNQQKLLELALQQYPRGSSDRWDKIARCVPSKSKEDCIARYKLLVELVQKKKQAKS
UniProt Q86XP1: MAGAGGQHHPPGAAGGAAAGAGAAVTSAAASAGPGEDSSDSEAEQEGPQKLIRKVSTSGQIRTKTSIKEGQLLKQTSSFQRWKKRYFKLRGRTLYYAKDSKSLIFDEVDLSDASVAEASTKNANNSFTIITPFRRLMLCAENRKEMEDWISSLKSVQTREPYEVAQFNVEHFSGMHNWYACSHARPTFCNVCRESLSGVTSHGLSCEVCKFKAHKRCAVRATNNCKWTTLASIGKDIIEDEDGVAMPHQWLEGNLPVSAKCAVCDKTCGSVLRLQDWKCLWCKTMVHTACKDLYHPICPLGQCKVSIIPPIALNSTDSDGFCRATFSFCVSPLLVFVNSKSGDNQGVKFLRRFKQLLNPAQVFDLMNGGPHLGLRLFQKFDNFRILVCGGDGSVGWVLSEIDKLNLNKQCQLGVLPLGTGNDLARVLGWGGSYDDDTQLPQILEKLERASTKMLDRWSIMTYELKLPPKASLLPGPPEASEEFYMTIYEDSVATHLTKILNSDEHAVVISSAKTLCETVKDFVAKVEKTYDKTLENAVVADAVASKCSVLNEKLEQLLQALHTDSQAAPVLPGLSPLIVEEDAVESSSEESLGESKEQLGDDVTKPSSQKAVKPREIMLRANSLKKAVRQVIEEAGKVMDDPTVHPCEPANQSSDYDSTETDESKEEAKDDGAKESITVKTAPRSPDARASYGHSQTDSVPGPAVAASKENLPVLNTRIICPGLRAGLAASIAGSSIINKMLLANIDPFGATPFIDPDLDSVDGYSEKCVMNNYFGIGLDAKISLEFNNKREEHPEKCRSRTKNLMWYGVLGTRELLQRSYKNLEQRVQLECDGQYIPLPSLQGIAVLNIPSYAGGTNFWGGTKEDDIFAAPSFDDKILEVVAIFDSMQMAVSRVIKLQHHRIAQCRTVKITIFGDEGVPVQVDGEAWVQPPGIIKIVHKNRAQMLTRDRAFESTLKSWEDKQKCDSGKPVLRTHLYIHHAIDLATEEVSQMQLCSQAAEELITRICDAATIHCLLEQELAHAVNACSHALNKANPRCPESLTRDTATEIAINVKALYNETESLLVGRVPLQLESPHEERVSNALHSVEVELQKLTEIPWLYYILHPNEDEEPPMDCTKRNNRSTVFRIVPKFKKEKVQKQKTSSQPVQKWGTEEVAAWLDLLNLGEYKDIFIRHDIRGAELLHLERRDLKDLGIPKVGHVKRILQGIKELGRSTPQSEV
UniProt P98153: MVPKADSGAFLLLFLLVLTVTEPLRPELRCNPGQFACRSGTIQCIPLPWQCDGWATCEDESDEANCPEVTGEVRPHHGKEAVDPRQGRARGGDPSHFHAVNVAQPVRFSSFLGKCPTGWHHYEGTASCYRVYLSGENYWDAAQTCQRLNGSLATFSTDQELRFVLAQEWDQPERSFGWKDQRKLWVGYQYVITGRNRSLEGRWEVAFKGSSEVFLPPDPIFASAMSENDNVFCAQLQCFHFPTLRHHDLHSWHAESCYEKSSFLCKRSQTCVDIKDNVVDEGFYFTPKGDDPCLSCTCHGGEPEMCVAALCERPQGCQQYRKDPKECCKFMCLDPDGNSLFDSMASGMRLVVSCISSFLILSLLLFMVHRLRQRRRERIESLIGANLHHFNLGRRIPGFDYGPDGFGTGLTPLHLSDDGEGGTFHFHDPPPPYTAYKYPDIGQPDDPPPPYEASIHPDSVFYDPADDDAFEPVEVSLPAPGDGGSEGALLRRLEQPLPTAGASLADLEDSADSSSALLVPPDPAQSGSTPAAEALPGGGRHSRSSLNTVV
UniProt Q8NDZ4: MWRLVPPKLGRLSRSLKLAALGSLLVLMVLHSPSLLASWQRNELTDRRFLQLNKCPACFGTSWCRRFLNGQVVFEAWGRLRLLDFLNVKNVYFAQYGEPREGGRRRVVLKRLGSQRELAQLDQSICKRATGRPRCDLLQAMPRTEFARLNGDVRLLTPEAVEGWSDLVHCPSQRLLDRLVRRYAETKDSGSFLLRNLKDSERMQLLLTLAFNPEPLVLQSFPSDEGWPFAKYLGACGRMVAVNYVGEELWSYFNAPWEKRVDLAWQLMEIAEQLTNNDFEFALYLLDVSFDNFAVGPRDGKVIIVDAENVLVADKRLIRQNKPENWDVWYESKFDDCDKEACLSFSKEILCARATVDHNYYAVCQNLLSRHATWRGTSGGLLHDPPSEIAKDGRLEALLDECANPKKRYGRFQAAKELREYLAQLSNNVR

How the values were obtained:
Test in all cases: log2 fold change, soluble protein after heating vs DMSO (PISA); higher = thermal stabilisation; K562 lysate, 10 uM; active = over 0.2 and 3.5 SD of the protein, either way, in both replicates (recomputed)
[1] = compound: CCCS(=O)(=O)Nc1ccc(F)c(C(=O)c2c[nH]c3ncc(-c4ccc(Cl)cc4)cc23)c1F [vemurafenib]
In short: (§1)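 Following dounce homogenisation of K562 pellets in PBS pH 7.4 with 1 mM MgCl2, crude extract at 1 mg/mL protein was incubated for 30 min with 10 μM compound. Aliquots were then heated for 3 min over 48°C-58°C and pooled, NP-40 was added to 0.5% at 4°C, and soluble protein was recovered as the supernatant at 21,000xg for 90 min. Channel-sum-equalised TMTpro 16plex LC-MS/MS quantified this protein. Each value, from duplicates, is a log-two fold change in thermal stability relative to solvent controls.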

[2] = compound: CCCS(=O)(=O)Nc1ccc(F)c(C(=O)c2c[nH]c3ncc(Cl)cc23)c1F
In short: as §1

[3] = compound: CCN(CCCOc1ccc2c(Nc3cc(CC(=O)Nc4cccc(F)c4)[nH]n3)ncnc2c1)CCOP(=O)(O)O [barasertib]
In short: as §1

[4] = compound: CC[C@@H]1C(=O)N(C)c2cnc(Nc3ccc(C(=O)NC4CCN(C)CC4)cc3OC)nc2N1C1CCCC1
In short: as §1

[5] = compound: CC[C@@H]1C(=O)N(C)c2cnc(Nc3ccc(C(=O)N[C@H]4CC[C@H](N5CCN(CC6CC6)CC5)CC4)cc3OC)nc2N1C(C)C [volasertib]
In short: as §1

[6] = compound: CCn1c(C(=O)N(C2CC2)C2CC2)cc2c3c(ncn3C)c(Nc3cc(C)n(C)n3)nc21
In short: as §1

[7] = compound: CCn1cc(-c2ccnc3[nH]c(-c4cccc(CN(C)C)c4)cc23)c(-c2ccc(NC(=O)N(C)C)cc2)n1
In short: as §1

[8] = compound: CN1CCC(CNc2ccc3ncc(-c4cccc(OC(F)(F)F)c4)n3n2)CC1
In short: as §1

[9] = compound: CN1CCN(CCOc2cc(OC3CCOCC3)c3c(Nc4c(Cl)ccc5c4OCO5)ncnc3c2)CC1 [saracatinib]
In short: as §1

[10] = compound: CN1CCN(c2nc(C3=C(c4c[nH]c5ccccc45)C(=O)NC3=O)c3ccccc3n2)CC1 [sotrastaurin]
In short: as §1

[11] = compound: CN1CC[C@H](c2c(O)cc(O)c3c(=O)cc(-c4ccccc4Cl)oc23)[C@H](O)C1 [alvocidib]
In short: as §1

[12] = compound: CN1CCc2c(c3ccccc3n2Cc2ccc(C(=O)NO)cc2)C1 [Tubastatin A]
In short: as §1

[13] = compound: CNC(=O)C1=CC=CC=C1NC2=NC(=NC=C2Cl)NC3=C(C=C(C=C3)N4CCOCC4)OC
In short: as §1

[14] = compound: CNC(=O)c1ccc(Nc2ncc(C(F)(F)F)c(NCc3nccnc3N(C)S(C)(=O)=O)n2)cc1 [defactinib]
In short: as §1

[15] = compound: CNc1nc(-c2ccc3c(N)n[nH]c3c2)cc(N2C[C@@H](C(=O)NC3CCCCC3)CC[C@H]2C)n1
In short: as §1

[16] = compound: COC(=O)N[C@@H](C)CNc1nccc(-c2cn(C(C)C)nc2-c2cc(Cl)cc(NS(C)(=O)=O)c2F)n1 [encorafenib]
In short: as §1

[17] = compound: COC(=O)[C@H](CCSC)NC(=O)C1=C(C=C(C=C1)NC[C@H](CS)N)C2=CC=CC=C2
In short: as §1

[18] = compound: COc1cc(Nc2ncc3c(n2)-c2ccc(Cl)cc2C(c2c(F)cccc2OC)=NC3)ccc1C(=O)O [alisertib]
In short: as §1

[19] = compound: COc1cc2nc(-c3cc(F)ccc3O)nc(N[C@@H]3CNC[C@H]3C(C)(C)O)c2cc1OC
In short: as §1

[20] = compound: COc1cc2ncnc(Nc3ccc(F)c(Cl)c3)c2cc1OCCCN1CCOCC1 [gefitinib]
In short: as §1

Measured: log2 fold change

DOCK7 (UniProt Q96N67)
inactive: [1] 0.045 | [2] 0.021 | [3] 0.027 | [4] -0.057 | [5] -0.01 | [6] 0 | [7] -0.068 | [8] -0.041 | [9] -0.028 | [10] 0.02 | [11] 0.007 | [12] -0.238 | [13] 0.006 | [14] -0.014 | [15] -0.035 | [16] 0.006 | [17] 0.038 | [18] 0.032 | [19] 0.026 | [20] 0.017

DNPH1 (UniProt H0Y8X4)
inactive: [1] -0.049 | [2] 0.009 | [3] 0 | [4] -0.05 | [5] 0.013 | [6] 0.022 | [7] -0.041 | [8] 0.058 | [9] -0.038 | [10] 0.004 | [11] -0.005 | [12] 0.004 | [13] 0.052 | [14] 0.012 | [15] 0 | [16] 0.001 | [17] 0 | [18] 0.017 | [19] 0 | [20] -0.016

DGKZ (UniProt Q13574)
inactive: [1] 0.014 | [2] 0.052 | [3] -0.024 | [4] -0.083 | [5] -0.024 | [6] -0.01 | [7] -0.035 | [8] -0.009 | [9] -0.016 | [10] -0.065 | [11] -0.018 | [12] -0.108 | [13] 0 | [14] -0.098 | [15] -0.006 | [16] 0.018 | [17] -0.062 | [18] -0.008 | [19] -0.025 | [20] -0.005

DMTN (UniProt Q08495)
inactive: [1] 0.041 | [2] 0.022 | [3] -0.016 | [4] 0.077 | [5] 0.009 | [6] -0.021 | [7] 0.042 | [8] 0.003 | [9] 0.003 | [10] 0.021 | [11] 0.011 | [12] 0.041 | [13] -0.012 | [14] -0.014 | [15] 0.023 | [16] 0.013 | [17] -0.069 | [18] -0.015 | [19] 0.011 | [20] 0.017

DNAJC1 (UniProt Q96KC8)
active: [8] -0.293
inactive: [1] -0.019 | [2] 0.006 | [3] 0.053 | [4] 0.017 | [5] -0.012 | [6] 0.067 | [7] 0.033 | [9] 0.029 | [10] -0.002 | [11] 0.016 | [12] -0.053 | [13] 0.013 | [14] 0.06 | [15] -0.059 | [16] 0.056 | [17] -0.257 | [18] 0.038 | [19] -0.104 | [20] 0.041

DOK3 (UniProt Q7L591)
inactive: [1] -0.041 | [2] 0.039 | [3] -0.054 | [4] 0.192 | [5] 0.008 | [6] 0.062 | [7] -0.127 | [8] 0.178 | [9] -0.018 | [10] 0.023 | [11] -0.032 | [12] 0.017 | [13] -0.005 | [14] -0.137 | [15] 0.112 | [16] -0.065 | [17] 0.028 | [18] -0.076 | [19] -0.045 | [20] 0.002

DGKH (UniProt Q86XP1)
inactive: [1] 0.128 | [3] 0.055 | [4] 0.043 | [6] -0.267 | [7] -0.12 | [8] 0.086 | [9] -0.018 | [10] 0.03 | [11] 0.039 | [12] 0.155 | [13] 0.037 | [14] -0.072 | [15] -0.104 | [16] 0.014 | [17] 0.094 | [18] 0.045 | [20] 0.226

DNPEP (UniProt C9JBE1)
inactive: [1] 0.137 | [2] -0.017 | [3] -0.019 | [4] -0.033 | [5] 0.031 | [7] -0.243 | [8] 0.094 | [11] -0.051 | [14] -0.091 | [16] -0.001 | [17] 0.04 | [18] 0.059 | [19] 0.062 | [20] 0.383

DGCR2 (UniProt P98153)
inactive: [1] -0.012 | [2] -0.253 | [4] 0.16 | [5] -0.085 | [6] 0.064 | [7] 0.095 | [8] -0.048 | [9] 0.055 | [11] -0.14 | [12] -0.14 | [13] 0.09 | [14] 0.068 | [15] -0.145 | [16] -0.094 | [17] -0.014 | [18] -0.155 | [19] -0.055 | [20] 0.068

Reprinted at random: 2 records from the list
DNPEP (UniProt C9JBE1)
inactive: [1] 0.137 | [2] -0.017 | [3] -0.019 | [4] -0.033 | [5] 0.031 | [7] -0.243 | [8] 0.094 | [11] -0.051 | [14] -0.091 | [16] -0.001 | [17] 0.04 | [18] 0.059 | [19] 0.062 | [20] 0.383

DOK3 (UniProt Q7L591)
inactive: [1] -0.041 | [2] 0.039 | [3] -0.054 | [4] 0.192 | [5] 0.008 | [6] 0.062 | [7] -0.127 | [8] 0.178 | [9] -0.018 | [10] 0.023 | [11] -0.032 | [12] 0.017 | [13] -0.005 | [14] -0.137 | [15] 0.112 | [16] -0.065 | [17] 0.028 | [18] -0.076 | [19] -0.045 | [20] 0.002

Next part

DIPK2A (UniProt Q8NDZ4)
inactive: [1] 0.026 | [2] 0.02 | [3] 0.024 | [4] 0.214 | [5] -0.023 | [6] 0.002 | [7] 0.001 | [8] -0.08 | [9] 0 | [10] -0.063 | [11] -0.075 | [12] 0.017 | [13] 0.033 | [14] -0.01 | [15] 0.039 | [16] 0.211 | [17] -0.066 | [19] -0.036

DMTN isoform 2 (UniProt Q08495)
inactive: [1] 0.113 | [2] 0.131 | [4] 0.135 | [5] -0.325 | [7] -0.124 | [8] 0.199 | [9] 0.117 | [10] -0.058 | [11] -0.194 | [13] -0.043 | [14] 0.069 | [15] 0.012 | [16] -0.098 | [17] 0.008 | [19] 0.157

DNAH5 (UniProt Q8TE73)
active: [7] -0.481
inactive: [1] 0.007 | [2] 0.074 | [3] 0.006 | [5] 0.02 | [6] -0.035 | [8] 0.122 | [9] 0.007 | [11] -0.189 | [12] 0.073 | [13] -0.032 | [14] -0.014 | [15] -0.051 | [18] -0.029 | [19] -0.019 | [20] 0.052
